No constants are given. Whether binding was seen depends on the method and setting. Binding seen in cells or lysates may run through a third protein. Some binding calls cover weakened binding; strength is not graded here.

Chains of the proteins cited; added tags and fusions are not shown.
UniProt Q9WTL8: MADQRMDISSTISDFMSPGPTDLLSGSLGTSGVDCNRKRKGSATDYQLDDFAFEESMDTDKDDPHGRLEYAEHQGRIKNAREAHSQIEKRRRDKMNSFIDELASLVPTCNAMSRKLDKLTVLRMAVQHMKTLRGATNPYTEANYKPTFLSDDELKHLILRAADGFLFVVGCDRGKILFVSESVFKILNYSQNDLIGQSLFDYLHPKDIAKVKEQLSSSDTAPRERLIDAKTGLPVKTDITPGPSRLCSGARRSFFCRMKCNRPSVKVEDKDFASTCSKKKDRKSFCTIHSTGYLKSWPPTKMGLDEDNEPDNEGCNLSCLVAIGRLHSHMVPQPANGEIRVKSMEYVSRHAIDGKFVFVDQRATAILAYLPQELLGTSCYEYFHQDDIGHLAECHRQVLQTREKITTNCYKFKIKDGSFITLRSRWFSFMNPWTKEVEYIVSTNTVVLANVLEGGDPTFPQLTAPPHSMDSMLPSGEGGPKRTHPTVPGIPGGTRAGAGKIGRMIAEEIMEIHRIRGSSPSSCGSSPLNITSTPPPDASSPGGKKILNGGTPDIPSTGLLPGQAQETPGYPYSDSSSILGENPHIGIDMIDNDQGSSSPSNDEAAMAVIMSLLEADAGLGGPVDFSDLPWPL

The target in one assay is T1, PERIOD (PER)3 (UniProt O70361).
T1 sequence: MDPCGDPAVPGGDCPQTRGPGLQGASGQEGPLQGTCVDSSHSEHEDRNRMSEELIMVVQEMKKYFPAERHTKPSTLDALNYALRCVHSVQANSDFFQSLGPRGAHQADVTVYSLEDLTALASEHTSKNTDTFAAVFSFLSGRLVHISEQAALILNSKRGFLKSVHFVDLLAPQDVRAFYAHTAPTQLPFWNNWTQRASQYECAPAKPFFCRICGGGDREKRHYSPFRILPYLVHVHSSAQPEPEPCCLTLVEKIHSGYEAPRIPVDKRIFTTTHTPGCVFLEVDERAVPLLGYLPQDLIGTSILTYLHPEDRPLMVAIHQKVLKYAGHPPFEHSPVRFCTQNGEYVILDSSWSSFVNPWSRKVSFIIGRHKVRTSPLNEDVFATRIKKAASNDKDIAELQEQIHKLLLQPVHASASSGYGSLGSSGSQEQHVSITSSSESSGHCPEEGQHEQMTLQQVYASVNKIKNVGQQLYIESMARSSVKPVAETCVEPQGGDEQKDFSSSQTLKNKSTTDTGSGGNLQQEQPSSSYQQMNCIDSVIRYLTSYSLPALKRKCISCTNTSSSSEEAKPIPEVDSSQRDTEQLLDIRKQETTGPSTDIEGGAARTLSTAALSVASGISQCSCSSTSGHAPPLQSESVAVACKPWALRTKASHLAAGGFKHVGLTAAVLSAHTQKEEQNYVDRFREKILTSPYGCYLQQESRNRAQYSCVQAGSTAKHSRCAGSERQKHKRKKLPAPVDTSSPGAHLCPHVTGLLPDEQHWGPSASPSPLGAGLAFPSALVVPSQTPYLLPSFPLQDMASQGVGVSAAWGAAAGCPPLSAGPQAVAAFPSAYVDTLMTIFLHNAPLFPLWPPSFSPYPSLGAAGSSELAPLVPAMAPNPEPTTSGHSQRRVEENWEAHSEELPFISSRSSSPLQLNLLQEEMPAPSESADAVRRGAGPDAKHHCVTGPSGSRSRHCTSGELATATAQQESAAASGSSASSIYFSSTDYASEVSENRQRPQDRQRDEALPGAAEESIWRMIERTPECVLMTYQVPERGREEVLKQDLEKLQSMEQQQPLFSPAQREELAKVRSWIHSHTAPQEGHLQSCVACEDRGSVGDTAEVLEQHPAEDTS
Description: co-IP; Co-IP kit; lysate incubated overnight at 4 °C with anti-BMAL1, anti-PER3 or IgG antibodies, magnetic beads, Western blot of the eluate; both directions.

The target of a further assay is BMAL1 (UniProt Q9WTL8). The description is as above.

Regarding BMAL1 (from UniProt Q9WTL8 1-632), in the assay with PERIOD (PER)3, the binding entry is reported as “binds”.

B1: PERIOD (PER)3 (protein, UniProt O70361 1-1113)
chain: T1 sequence
On to B1, for which, in the assay with BMAL1, the binding entry is listed as “binds”.
